# In the supplement of paper PMC12067093, “Discovery and optimisation of a covalent ligand for TRIM25 and its application to targeted protein ubiquitination” (Chemical Science, 2025):
# Protein sequences, listed by entry. Tags and fused reporters are not part of them. Lines headed by an entry give the natural chain unless they say otherwise; changes in a name come on top.
# UniProt P08240: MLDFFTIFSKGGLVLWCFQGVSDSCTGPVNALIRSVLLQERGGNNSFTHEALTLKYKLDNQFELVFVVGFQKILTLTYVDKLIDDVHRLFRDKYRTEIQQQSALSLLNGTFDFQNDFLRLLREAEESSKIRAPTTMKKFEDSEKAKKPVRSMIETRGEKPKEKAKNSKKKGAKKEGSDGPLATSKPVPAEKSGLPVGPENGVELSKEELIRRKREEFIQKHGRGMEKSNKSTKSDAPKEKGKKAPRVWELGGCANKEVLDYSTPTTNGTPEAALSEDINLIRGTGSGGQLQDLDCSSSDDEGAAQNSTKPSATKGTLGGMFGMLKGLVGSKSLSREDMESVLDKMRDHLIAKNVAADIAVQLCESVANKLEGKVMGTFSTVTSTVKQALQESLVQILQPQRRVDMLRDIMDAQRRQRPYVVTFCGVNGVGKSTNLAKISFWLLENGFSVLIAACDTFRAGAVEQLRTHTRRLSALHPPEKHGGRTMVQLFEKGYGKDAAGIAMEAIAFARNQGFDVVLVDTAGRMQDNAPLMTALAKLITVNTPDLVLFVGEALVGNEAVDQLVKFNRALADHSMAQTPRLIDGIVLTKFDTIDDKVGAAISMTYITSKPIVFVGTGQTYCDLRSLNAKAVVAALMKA
# UniProt Q00796: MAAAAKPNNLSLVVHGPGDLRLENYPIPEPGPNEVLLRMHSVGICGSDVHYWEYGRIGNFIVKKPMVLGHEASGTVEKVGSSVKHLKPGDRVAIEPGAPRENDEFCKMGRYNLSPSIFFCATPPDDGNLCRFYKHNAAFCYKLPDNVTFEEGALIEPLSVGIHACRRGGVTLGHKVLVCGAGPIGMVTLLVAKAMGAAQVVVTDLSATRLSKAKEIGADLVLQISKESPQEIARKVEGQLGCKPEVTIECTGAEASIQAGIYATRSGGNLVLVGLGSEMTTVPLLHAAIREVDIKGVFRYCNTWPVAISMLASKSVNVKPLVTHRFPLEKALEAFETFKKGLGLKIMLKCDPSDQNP
# UniProt Q9NUQ6: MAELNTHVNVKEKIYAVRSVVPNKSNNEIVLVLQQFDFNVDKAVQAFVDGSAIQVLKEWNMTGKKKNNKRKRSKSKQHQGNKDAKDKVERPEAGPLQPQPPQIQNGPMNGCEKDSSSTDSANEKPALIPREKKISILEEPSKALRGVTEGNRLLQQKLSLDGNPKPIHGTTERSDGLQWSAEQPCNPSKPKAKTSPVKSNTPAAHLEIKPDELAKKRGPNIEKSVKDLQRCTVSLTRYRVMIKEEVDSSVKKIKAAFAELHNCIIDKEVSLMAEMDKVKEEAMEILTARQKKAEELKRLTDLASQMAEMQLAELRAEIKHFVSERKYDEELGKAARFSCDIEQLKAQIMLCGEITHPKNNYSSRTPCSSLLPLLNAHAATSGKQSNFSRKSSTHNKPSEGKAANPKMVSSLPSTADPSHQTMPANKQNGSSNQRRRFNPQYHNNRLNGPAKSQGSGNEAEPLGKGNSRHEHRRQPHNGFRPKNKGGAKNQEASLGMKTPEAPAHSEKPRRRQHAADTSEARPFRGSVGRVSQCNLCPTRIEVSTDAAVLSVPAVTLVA
# UniProt Q07617: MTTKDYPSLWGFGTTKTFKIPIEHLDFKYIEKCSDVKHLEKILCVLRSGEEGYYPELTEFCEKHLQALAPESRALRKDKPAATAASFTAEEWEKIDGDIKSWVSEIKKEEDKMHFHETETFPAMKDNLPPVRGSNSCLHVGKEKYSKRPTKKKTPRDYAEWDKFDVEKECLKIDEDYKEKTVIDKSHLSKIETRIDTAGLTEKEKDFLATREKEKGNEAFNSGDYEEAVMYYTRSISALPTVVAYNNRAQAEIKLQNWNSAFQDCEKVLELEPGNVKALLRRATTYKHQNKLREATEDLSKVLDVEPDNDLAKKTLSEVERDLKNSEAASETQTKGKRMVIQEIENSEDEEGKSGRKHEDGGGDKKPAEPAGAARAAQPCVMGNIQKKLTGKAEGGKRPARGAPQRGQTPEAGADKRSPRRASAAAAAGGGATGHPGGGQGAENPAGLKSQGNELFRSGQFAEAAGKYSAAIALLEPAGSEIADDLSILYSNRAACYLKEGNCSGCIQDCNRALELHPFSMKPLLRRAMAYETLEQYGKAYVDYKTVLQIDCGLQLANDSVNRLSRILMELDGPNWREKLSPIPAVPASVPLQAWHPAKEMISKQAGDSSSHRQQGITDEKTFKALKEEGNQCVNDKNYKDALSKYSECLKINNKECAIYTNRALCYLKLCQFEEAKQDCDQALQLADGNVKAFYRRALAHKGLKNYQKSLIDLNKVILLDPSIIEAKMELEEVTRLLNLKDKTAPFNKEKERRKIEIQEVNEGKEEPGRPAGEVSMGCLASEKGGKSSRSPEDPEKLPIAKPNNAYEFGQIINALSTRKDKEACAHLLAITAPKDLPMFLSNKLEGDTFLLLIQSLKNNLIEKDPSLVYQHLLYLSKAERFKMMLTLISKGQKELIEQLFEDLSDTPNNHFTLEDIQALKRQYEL
# UniProt O60271: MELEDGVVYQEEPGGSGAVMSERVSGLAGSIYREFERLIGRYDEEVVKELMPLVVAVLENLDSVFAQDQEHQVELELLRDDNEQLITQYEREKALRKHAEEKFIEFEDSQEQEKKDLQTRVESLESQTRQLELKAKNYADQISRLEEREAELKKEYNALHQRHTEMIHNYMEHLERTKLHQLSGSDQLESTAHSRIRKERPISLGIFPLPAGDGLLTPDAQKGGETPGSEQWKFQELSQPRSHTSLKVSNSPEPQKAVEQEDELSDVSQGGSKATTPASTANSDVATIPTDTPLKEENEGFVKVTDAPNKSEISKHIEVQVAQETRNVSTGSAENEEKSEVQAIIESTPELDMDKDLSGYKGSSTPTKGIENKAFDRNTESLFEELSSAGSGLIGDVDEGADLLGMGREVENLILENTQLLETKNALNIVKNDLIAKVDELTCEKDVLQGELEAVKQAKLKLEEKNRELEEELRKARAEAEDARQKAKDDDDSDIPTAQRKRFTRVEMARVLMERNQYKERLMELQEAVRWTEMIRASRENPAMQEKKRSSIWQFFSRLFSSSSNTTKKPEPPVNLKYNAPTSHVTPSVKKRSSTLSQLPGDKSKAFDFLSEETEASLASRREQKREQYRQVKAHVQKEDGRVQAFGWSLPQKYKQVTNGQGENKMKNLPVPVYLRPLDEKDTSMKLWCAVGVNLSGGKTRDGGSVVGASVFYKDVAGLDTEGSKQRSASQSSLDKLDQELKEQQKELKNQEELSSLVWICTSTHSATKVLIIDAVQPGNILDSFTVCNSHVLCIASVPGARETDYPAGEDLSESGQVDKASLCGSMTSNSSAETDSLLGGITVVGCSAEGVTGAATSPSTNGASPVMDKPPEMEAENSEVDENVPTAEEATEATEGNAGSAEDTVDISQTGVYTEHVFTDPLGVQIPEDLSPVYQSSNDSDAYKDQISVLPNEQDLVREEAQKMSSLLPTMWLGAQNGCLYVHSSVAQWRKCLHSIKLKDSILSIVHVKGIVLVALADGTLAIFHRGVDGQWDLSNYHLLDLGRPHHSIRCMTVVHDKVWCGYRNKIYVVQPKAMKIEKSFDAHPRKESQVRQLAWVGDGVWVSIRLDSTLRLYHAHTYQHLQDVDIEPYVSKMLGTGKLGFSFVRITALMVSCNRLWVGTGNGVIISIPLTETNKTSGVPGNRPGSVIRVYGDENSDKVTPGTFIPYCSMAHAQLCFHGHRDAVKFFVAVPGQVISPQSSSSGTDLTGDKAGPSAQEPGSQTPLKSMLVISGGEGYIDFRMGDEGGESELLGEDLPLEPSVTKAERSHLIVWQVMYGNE
# UniProt O15270: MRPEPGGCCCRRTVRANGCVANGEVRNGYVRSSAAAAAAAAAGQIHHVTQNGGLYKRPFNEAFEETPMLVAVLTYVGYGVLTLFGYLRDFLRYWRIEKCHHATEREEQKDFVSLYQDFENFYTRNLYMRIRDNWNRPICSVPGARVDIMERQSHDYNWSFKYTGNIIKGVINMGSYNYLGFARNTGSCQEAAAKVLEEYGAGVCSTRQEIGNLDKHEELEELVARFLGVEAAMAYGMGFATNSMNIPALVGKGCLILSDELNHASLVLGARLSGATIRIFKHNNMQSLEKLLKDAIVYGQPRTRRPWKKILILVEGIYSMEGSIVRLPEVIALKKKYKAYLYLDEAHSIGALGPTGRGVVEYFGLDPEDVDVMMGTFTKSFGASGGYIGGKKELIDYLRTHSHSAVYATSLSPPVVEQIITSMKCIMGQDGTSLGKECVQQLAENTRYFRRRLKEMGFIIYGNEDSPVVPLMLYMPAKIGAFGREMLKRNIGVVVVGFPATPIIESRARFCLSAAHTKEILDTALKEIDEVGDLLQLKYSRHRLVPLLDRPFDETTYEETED
# UniProt Q9H930: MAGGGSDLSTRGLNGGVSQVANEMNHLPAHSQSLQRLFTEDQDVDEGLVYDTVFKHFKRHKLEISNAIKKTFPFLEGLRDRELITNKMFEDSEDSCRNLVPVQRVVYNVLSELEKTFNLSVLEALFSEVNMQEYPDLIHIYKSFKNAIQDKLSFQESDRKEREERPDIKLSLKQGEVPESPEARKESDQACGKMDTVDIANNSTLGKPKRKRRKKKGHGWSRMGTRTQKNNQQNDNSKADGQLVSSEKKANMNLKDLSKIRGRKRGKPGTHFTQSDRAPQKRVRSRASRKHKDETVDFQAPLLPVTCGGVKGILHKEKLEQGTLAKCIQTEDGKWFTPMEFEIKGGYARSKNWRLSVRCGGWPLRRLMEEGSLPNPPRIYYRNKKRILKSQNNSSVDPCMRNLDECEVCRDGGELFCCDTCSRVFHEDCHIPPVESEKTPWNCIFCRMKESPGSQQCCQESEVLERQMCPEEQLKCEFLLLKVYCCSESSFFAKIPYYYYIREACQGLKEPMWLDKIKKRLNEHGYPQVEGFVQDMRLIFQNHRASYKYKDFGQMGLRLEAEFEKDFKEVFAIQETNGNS
# UniProt Q9HB58: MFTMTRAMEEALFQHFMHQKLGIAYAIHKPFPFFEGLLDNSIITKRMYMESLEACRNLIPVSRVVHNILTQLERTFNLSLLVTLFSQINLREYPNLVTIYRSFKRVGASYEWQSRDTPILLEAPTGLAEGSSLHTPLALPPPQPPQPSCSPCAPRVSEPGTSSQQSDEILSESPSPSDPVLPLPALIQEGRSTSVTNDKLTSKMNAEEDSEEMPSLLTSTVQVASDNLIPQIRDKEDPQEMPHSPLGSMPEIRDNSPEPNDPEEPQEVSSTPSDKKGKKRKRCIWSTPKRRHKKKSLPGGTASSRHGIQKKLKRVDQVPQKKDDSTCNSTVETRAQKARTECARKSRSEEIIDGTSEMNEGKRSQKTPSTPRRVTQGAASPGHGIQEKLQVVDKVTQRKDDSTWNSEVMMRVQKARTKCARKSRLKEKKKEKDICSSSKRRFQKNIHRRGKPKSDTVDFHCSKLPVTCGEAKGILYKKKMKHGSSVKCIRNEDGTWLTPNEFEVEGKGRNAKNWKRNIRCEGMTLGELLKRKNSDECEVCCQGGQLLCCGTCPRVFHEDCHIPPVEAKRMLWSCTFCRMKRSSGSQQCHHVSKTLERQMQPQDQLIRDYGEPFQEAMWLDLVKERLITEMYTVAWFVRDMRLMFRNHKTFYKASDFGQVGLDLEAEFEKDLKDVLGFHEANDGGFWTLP
# UniProt Q9NZD8: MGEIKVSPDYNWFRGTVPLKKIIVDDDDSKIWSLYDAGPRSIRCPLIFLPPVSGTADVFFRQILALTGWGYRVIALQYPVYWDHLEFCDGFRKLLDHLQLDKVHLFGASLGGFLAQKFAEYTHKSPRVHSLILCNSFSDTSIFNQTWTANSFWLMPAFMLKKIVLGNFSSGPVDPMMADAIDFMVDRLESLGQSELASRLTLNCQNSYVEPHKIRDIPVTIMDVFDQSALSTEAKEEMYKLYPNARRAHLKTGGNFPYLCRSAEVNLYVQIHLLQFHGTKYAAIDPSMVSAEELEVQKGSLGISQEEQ
# UniProt P55769: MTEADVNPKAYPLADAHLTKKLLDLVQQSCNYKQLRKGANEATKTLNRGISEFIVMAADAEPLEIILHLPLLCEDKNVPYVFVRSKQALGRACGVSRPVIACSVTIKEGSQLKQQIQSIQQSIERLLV
# UniProt O15269: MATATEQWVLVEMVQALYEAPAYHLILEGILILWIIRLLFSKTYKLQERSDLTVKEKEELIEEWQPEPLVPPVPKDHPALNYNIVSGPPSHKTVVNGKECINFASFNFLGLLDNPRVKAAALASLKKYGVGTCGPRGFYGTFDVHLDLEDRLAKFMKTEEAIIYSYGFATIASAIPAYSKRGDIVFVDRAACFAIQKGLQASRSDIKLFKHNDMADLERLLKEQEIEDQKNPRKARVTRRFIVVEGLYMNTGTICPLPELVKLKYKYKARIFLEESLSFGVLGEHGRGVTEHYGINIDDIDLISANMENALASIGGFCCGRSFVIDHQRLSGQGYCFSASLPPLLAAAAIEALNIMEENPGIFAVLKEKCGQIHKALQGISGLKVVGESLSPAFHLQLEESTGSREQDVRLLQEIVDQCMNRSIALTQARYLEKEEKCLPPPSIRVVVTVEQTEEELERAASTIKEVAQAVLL
# Some of the results follow.
# Compound: Cc1cc(ccc1-c1ccccc1)C(=O)N1CCCN(CC1)C(=O)CCl [compound 10]
# Test: probe-labelled cysteine peptide fold change vs DMSO (competition) (log2 fold change); higher = less target engagement (more negative = stronger competition)
# Details: THP-1, incubation time: 4 h
# 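Also: competitive profiling in live THP-1 cells: cysteine peptides tagged with an iodoacetamide desthiobiotin (IA-DTB) probe, intensity after compound treatment relative to DMSO-treated cells.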
Target,probe-labelled cysteine peptide fold change (10 µM),probe-labelled cysteine peptide fold change (50 µM)
SOS1_Q07889_838_CIVETENLEER (UniProt Q07889),0.113,0.392
SRPRA_P08240_363_NVAADIAVQLCESVANKLEGK (UniProt P08240),0.199,-0.248
SORD_Q00796_45_MHSVGICGSDVHYWEYGR (UniProt Q00796),-0.268,-0.769
SOD1_P00441_112_HVGDLGNVTADKDGVADVSIEDSVISLSGDHCIIGR (UniProt P00441),-0.102,-0.454
SPATS2L_Q9NUQ6_111_DKVERPEAGPLQPQPPQIQNGPMNGCEK (UniProt Q9NUQ6),-0.0498,-0.417
SPAG1_Q07617_633_EEGNQCVNDK (UniProt Q07617),-0.0703,-0.479
SPAG9_O60271_689_LWCAVGVNLSGGK (UniProt O60271),-0.0189,-0.0339
SPTLC2_O15270_204_VLEEYGAGVCSTR (UniProt O15270),-0.0137,0.212
SP140L_Q9H930_429_VFHEDCHIPPVESEK (UniProt Q9H930),-0.0288,0.13
SP110_Q9HB58_468_LPVTCGEAK (UniProt Q9HB58),0.0849,0.00207
SPG21_Q9NZD8_204_LTLNCQNSYVEPHK (UniProt Q9NZD8),-0.303,-0.246
SPATS2L_Q9NUQ6_367_TPCSSLLPLLNAHAATSGK (UniProt Q9NUQ6),-0.195,-0.416
SNU13_P55769_93+102_ACGVSRPVIACSVTIK (UniProt P55769),0.229,-0.0692
SPTLC1_O15269_419_LLQEIVDQCMNR (UniProt O15269),0.137,0.171
